Values from PubChem BioAssay AID504774 (Drosophila RNAi Screening Center, 2011)
The screen tested about 23,000 reagents; this is an unselected part of those with a known target gene and a result. 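Values are quantile-normalised luminescence on an arbitrary scale; higher means more cells surviving MMS.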 Reagents against one gene are numbered here. A plus sign joins genes that one reagent is predicted to hit. No sequences are given here.

- Test: 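Genes required for cells to withstand methyl methanesulphonate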 (primary screen)
- System: Drosophila Kc167 cells
- Knock-down reagent: long dsRNA against Drosophila genes, about 0.25 µg dsRNA per well
- Timing: about 6 days: 3 days knock-down, then 3 days with or without MMS
- Treatment: methyl methanesulphonate 0.004% (w/v) for 3 days after knock-down
- Measured: 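ATP-dependent luminescence as a measure of live cells in MMS-exposed wells, quantile normalised within each plate, with replicate values also given as a mean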
- Scale: mean viability with MMS and viability with MMS: higher = more surviving cells after MMS

| predicted target | reagent | mean viability with MMS | viability with MMS, replicate 1 | viability with MMS, replicate 2 |
| --- | --- | --- | --- | --- |
| Gmppa (GDP-mannose pyrophosphorylase A) | 1 | 3.40e6 | 3.93e6 | 3.85e6 |
| COX5B (Cytochrome c oxidase subunit 5B) | 1 | 3.36e6 | 3.64e6 | 3.92e6 |
| Zyx (Zyxin) | 1 | 3.53e6 | 4.04e6 | 3.97e6 |
| CG11300 | 1 | 3.53e6 | 4.06e6 | 3.95e6 |
| ATPsynepsilonL (ATP synthase, epsilon subunit-like) | 1 | 3.55e6 | 4.00e6 | 4.05e6 |
| sxc (super sex combs) | 1 | 3.83e6 | 4.34e6 | 4.24e6 |
| CG9014 | 1 | 3.60e6 | 4.00e6 | 4.15e6 |
| CG17024 (retired record) | 1 | 3.85e6 | 4.31e6 | 4.30e6 |
| ubl (ubiquitin like) | 1 | 3.27e6 | 3.75e6 | 3.72e6 |
| CG5707 | 1 | 3.44e6 | 3.93e6 | 3.87e6 |
| eEF1alpha2 (eukaryotic translation elongation factor 1 alpha 2) | 1 | 3.52e6 | 4.06e6 | 3.94e6 |
| eEF1alpha2 (eukaryotic translation elongation factor 1 alpha 2) | 2 | 3.36e6 | 3.79e6 | 3.84e6 |
| CG14424 | 1 | 3.45e6 | 4.00e6 | 3.82e6 |
| CG9945 | 1 | 3.48e6 | 3.89e6 | 4.00e6 |
| SerRS-m (Seryl-tRNA synthetase, mitochondrial) | 1 | 3.44e6 | 4.02e6 | 3.78e6 |
| CG42327 | 1 | 3.28e6 | 3.75e6 | 3.82e6 |
| CG42327 | 2 | 3.53e6 | 4.00e6 | 4.04e6 |
| CG42327 | 3 | 3.55e6 | 3.97e6 | 4.11e6 |
| IA-2 (IA-2 protein tyrosine phosphatase) | 1 | 3.67e6 | 4.19e6 | 4.16e6 |
| IA-2 (IA-2 protein tyrosine phosphatase) | 2 | 3.60e6 | 3.88e6 | 4.29e6 |
| IA-2 (IA-2 protein tyrosine phosphatase) | 3 | 3.66e6 | 4.10e6 | 4.21e6 |
| CG11790 | 1 | 3.42e6 | 3.79e6 | 3.96e6 |
| CG13720 | 1 | 3.39e6 | 3.80e6 | 3.86e6 |
| CG1647 | 1 | 3.41e6 | 3.87e6 | 3.87e6 |
| CG33128 | 1 | 3.50e6 | 4.19e6 | 4.39e6 |
| Gbeta13F (G protein beta subunit 13F) | 1 | 3.58e6 | 4.17e6 | 4.08e6 |
| Fbp1 (Fat body protein 1) | 1 | 3.35e6 | 3.76e6 | 3.77e6 |
| CG32219 | 1 | 3.69e6 | 4.14e6 | 4.20e6 |
| mei-S332 (meiotic from via Salaria 332) | 1 | 3.63e6 | 4.24e6 | 4.05e6 |
| CG17855 | 1 | 3.49e6 | 3.91e6 | 4.00e6 |
| CG42538 | 1 | 3.71e6 | 4.16e6 | 4.22e6 |
| CG5254 | 1 | 3.56e6 | 4.06e6 | 4.01e6 |
| CG4884 | 1 | 3.41e6 | 3.76e6 | 3.91e6 |
| CG15818 | 1 | 3.76e6 | 4.37e6 | 4.22e6 |
| CG14961 | 1 | 3.52e6 | 4.03e6 | 3.94e6 |
| Ssdp (Sequence-specific single-stranded DNA-binding protein) | 1 | 3.58e6 | 4.15e6 | 3.97e6 |
| AGO1 (Argonaute-1) | 1 | 3.42e6 | 3.92e6 | 3.80e6 |
| slo (slowpoke) | 1 | 3.50e6 | 3.93e6 | 4.02e6 |
| js (jiangshi) | 1 | 3.49e6 | 3.98e6 | 3.92e6 |
| CG13113 | 1 | 3.56e6 | 3.92e6 | 4.17e6 |
| Acbp4 (Acyl-CoA binding protein 4) | 1 | 3.51e6 | 4.06e6 | 3.92e6 |
| DCAF12 (DDB1 and CUL4 associated factor 12) | 1 | 3.66e6 | 4.26e6 | 4.08e6 |
| CG31886 | 1 | 3.80e6 | 4.57e6 | 4.05e6 |
| CG34309 | 1 | 3.83e6 | 4.31e6 | 4.36e6 |
| CG13723 | 1 | 3.38e6 | 3.79e6 | 3.80e6 |
| CG7860 | 1 | 3.56e6 | 4.18e6 | 4.08e6 |
| CG8726 | 1 | 3.82e6 | 4.28e6 | 4.34e6 |
| CG11920 | 1 | 3.34e6 | 3.86e6 | 3.74e6 |
| CG31909 | 1 | 3.52e6 | 3.90e6 | 4.08e6 |
| Fem-1 | 1 | 3.54e6 | 4.00e6 | 4.01e6 |
| CSN7 (COP9 signalosome subunit 7) | 1 | 3.43e6 | 3.91e6 | 3.83e6 |
| CSN7 (COP9 signalosome subunit 7) | 2 | 3.40e6 | 3.91e6 | 3.81e6 |
| RpS11 (Ribosomal protein S11) | 1 | 3.47e6 | 3.91e6 | 3.92e6 |
| RpS11 (Ribosomal protein S11) | 2 | 2.84e6 | 3.65e6 | 3.68e6 |
| l(1)G0004 (lethal (1) G0004) | 1 | 3.45e6 | 3.93e6 | 3.86e6 |
| Tim17a1 | 1 | 3.65e6 | 4.08e6 | 4.11e6 |
| CG1674 | 1 | 3.65e6 | 4.10e6 | 4.16e6 |
| CG5478 | 1 | 3.56e6 | 3.94e6 | 4.14e6 |
| CG31688 + CG31687 | 1 | 3.29e6 | 3.66e6 | 3.79e6 |
| wisp (wispy) | 1 | 3.53e6 | 4.18e6 | 3.91e6 |
| wisp (wispy) | 2 | 3.46e6 | 3.83e6 | 4.05e6 |
| Sgsh (N-sulfoglucosamine sulfohydrolase) | 1 | 3.54e6 | 4.19e6 | 3.85e6 |
| velo (veloren) | 1 | 2.91e6 | 3.58e6 | 3.58e6 |
| velo (veloren) | 2 | 3.05e6 | 3.63e6 | 3.60e6 |
| CG5849 | 1 | 3.69e6 | 4.05e6 | 4.31e6 |
| CG6443 | 1 | 3.42e6 | 3.67e6 | 4.02e6 |
| atms (antimeros) | 1 | 3.24e6 | 3.67e6 | 3.67e6 |
| Tango8 (Transport and Golgi organization 8) | 1 | 3.19e6 | 3.86e6 | 3.74e6 |

Ordered by “viability with MMS, replicate 1” (ascending): some entries from above
| predicted target | reagent | mean viability with MMS | viability with MMS, replicate 1 | viability with MMS, replicate 2 |
| --- | --- | --- | --- | --- |
| CG4884 | 1 | 3.41e6 | 3.76e6 | 3.91e6 |
| CG17855 | 1 | 3.49e6 | 3.91e6 | 4.00e6 |
| CG5254 | 1 | 3.56e6 | 4.06e6 | 4.01e6 |
| CG32219 | 1 | 3.69e6 | 4.14e6 | 4.20e6 |
| CG42538 | 1 | 3.71e6 | 4.16e6 | 4.22e6 |
| mei-S332 (meiotic from via Salaria 332) | 1 | 3.63e6 | 4.24e6 | 4.05e6 |
